These are yes or no findings as the source states them, for the method shown. A result given as binding can be weak or reduced; the word gives no strength.
Columns and labels:
[1] = target: human PAR4 on isolated human platelets (human); experiment: flow cytometry against an isotype control
[2] = target: human PAR4 on isolated human platelets (human); experiment: flow cytometry on isolated human platelets
[3] = target: human PAR4 on isolated human platelets (human); experiment: flow cytometry on isolated human platelets, 5A.RC3 at 10 ug/mL
[4] = target: human PAR4 on isolated human platelets (human); experiment: flow cytometry on isolated human platelets, delta geometric mean fluorescence

Measured: binding

B1: 5A.RC3.F10b.H4b (antibody, IgG2a, V domains shown)
VH: QVQLVESGGGVVQPGRSLRLSCAASGFTLSNYGMHWVRQAPGKGLEWVSVIWYDGSNKHYADSVKGRFTISRDNSKNTLYLQMNSLRAEDTAVYYCARESIVEVLPPFDYWGQGTLVTVSS
VL: KIVLTQSPGTLSLSPGERVTLSCRASQRVRNNYLAWFQQKPGQAPRLFIYGASSRATGIPDRFSGSGSGTDFIFTISRLEPEDFAVYYCQQYGNSYTFGQGTKLEIK
binds: all assays above
